Values of other authors in US20260345555A1, “Compositions and Methods for Protecting Salivary Glands from Off-Target Radiation Damage” (University of Rochester, priority 2022, published 2026).
At least one read-out could not be matched to a standard name with certainty.

Settings: doses ranged from 300-1000 mg; cited from earlier work

## CCCCC1C(=O)N(c2ccccc2)N(c2ccccc2)C1=O [Phenylbutazone]
  plasma concentration: 30000 to 50000 ng/mL
